From the supplement of paper PMC12819154, “High-throughput peptide-centric local stability assay extends protein–ligand identification to membrane proteins, tissues and bacteria” (Nature Structural & Molecular Biology, 2025)
The other results are listed elsewhere or left out. Small differences around the control level are noise.

By UniProt entry, the sequences of proteins in these tests, tags left out. Where a name states a change or a piece, a line headed by the entry shows the natural chain unless it says otherwise.
UniProt P08680: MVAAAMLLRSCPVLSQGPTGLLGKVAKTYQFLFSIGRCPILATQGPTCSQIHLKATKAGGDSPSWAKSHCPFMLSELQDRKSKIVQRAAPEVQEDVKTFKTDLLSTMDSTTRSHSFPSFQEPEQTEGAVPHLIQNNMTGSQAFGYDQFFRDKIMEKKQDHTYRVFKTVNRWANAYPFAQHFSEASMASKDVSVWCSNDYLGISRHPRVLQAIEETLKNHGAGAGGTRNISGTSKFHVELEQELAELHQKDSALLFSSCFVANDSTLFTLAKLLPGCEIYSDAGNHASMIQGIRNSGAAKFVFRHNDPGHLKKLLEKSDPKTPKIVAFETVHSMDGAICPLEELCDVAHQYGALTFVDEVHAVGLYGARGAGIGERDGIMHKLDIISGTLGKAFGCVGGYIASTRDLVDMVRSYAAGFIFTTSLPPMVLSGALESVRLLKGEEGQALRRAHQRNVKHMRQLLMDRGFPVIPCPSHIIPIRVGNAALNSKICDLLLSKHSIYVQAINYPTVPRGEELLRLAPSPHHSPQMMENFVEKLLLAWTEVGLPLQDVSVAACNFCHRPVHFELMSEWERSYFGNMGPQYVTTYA
UniProt P13412, whole entry: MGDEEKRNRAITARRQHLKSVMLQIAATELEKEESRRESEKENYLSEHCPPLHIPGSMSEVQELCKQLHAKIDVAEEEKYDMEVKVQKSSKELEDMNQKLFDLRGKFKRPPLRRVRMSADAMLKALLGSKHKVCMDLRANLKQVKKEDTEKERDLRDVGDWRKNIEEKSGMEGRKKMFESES
UniProt P04247: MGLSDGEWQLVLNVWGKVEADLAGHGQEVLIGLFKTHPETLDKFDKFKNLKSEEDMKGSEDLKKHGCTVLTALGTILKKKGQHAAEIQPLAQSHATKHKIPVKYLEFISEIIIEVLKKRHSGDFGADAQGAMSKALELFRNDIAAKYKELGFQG
UniProt P13595, whole entry: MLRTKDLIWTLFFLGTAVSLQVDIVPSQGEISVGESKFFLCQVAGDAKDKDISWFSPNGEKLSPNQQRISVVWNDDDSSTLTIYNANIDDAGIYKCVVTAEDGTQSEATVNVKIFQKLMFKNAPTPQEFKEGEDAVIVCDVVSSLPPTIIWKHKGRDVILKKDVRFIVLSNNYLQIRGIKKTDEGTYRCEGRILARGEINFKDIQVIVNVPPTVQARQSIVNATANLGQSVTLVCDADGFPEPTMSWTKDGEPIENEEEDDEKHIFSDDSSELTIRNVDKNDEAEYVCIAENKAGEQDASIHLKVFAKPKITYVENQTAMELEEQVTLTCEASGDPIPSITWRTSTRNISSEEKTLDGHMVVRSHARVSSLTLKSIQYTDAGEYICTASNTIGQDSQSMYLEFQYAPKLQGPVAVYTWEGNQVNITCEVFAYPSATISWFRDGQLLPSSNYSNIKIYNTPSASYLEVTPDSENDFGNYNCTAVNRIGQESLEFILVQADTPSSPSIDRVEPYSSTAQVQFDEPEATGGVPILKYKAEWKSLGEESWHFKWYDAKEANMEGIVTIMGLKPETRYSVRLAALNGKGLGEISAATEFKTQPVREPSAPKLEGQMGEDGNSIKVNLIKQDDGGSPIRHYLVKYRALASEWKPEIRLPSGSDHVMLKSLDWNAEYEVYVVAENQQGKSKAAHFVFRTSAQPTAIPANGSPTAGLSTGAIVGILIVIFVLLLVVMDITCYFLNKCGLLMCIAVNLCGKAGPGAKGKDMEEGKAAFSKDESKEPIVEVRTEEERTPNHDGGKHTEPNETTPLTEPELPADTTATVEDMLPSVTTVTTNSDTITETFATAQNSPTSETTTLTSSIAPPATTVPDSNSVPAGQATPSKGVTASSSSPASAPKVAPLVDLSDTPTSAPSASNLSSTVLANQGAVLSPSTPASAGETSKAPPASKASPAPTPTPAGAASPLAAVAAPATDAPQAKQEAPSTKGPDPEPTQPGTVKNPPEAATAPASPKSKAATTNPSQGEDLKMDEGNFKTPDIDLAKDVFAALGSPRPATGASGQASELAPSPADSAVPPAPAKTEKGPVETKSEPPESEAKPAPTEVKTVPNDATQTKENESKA
UniProt P11087, whole entry: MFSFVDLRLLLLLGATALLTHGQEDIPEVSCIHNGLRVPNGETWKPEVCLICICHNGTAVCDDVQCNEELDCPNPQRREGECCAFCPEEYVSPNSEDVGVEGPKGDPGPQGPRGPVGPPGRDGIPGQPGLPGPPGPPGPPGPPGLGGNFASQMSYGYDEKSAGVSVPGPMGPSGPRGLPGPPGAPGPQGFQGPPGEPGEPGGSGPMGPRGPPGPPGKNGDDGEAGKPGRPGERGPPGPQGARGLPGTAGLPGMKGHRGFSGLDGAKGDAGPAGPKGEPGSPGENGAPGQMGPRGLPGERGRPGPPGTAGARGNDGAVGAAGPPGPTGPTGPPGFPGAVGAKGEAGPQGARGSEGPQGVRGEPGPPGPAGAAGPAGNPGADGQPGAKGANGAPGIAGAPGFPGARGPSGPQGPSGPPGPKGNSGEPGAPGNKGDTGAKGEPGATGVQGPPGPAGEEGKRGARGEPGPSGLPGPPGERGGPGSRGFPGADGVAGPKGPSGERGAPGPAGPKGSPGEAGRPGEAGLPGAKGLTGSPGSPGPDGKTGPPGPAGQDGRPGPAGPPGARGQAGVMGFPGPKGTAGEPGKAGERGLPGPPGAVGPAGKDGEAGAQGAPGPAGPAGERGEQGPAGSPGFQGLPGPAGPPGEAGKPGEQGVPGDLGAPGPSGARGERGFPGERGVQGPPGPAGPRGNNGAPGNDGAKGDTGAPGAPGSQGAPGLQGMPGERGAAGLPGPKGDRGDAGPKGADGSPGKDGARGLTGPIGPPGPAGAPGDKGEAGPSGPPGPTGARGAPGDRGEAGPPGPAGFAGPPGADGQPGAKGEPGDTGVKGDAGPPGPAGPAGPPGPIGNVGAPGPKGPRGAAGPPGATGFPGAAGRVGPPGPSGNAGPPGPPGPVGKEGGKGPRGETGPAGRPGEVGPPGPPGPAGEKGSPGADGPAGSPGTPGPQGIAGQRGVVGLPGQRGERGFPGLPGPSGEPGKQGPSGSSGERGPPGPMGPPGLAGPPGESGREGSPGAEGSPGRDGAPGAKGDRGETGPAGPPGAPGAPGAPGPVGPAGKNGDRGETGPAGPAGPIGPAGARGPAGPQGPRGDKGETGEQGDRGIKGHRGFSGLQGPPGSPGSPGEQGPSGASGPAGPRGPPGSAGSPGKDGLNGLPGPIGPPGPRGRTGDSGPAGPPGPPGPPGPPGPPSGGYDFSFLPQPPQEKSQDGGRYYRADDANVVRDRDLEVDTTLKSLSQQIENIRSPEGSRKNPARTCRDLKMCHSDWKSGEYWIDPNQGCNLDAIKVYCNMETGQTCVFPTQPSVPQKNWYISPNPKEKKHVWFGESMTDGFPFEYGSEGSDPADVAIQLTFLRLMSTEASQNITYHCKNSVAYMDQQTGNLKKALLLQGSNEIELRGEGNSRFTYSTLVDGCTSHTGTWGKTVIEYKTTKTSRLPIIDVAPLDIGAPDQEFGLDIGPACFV
UniProt P07724, whole entry: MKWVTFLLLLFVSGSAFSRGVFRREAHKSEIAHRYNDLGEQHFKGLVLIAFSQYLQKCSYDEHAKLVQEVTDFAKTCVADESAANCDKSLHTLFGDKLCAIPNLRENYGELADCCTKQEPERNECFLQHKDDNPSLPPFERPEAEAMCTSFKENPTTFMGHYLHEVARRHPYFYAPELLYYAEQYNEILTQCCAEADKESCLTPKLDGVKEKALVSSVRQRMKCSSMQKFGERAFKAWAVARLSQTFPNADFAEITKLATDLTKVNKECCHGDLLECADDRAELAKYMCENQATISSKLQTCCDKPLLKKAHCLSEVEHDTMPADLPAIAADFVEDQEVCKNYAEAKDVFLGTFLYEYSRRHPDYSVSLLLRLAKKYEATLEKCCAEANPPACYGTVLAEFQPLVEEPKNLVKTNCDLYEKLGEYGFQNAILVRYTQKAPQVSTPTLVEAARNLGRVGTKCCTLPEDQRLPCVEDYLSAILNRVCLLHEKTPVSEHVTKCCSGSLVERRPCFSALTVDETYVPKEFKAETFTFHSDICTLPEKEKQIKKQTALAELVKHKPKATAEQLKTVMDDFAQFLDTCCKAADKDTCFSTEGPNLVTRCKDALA

compound: CN[C@@H]1C[C@H]2O[C@@](C)([C@@H]1OC)n1c3ccccc3c3c4c(c5c6ccccc6n2c5c31)C(=O)NC4 [staurosporine]; assay: log2 fold change of tryptic peptide abundance, ligand vs vehicle (limited proteolysis) (log2 ratio); higher = more trypsin-susceptible (destabilized); details: ligand concentration: 20 uM; sample: mouse liver crude lysate; replicate design: treated separately

Target | log2 fold change
UniProt P08680 (peptide sequence: SHCPFMLSELQDRK, peptide start residue: 68) | -0.247
UniProt P13412 (peptide sequence: MSADAMLK, peptide start residue: 117) | 0.382
UniProt P04247 (peptide sequence: HGCTVLTALGTILKK, peptide start residue: 65) | -0.065
UniProt P13595 (peptide sequence: TLDGHMVVR, peptide start residue: 355) | 0.406
UniProt P11087 (peptide sequence: SLSQQIENIR, peptide start residue: 1226) | 0.521
UniProt P11881 (peptide sequence: IYYTTERDEQGSK, peptide start residue: 2226) | 0.577
UniProt P07724 (peptide sequence: KQTALAELVK, peptide start residue: 549) | 0.501

Shown as a markdown table: part of the list above.

| Target | log2 fold change |
| --- | --- |
| UniProt P04247 (peptide sequence: HGCTVLTALGTILKK, peptide start residue: 65) | -0.065 |
| UniProt P11087 (peptide sequence: SLSQQIENIR, peptide start residue: 1226) | 0.521 |
